Experimental data as given in patent US7381537B2, “Use of inhibitors of glutaminyl cyclases for treatment and prevention of disease” (Probiodrug AG, priority 2003, dated 2008).
At least one peptide structure holds a part that was inferred or is arguable (an end, a ring closure or a residue). Square brackets hold non-standard residues; d marks the D form. Ends that are not written are not given here. Peptide text beside a SMILES is read from it. β3hQ = NC(=O)CC[C@H](N)CC(=O)O

Chains of the proteins cited; added tags and fusions are not shown. Residues count along the entry.
UniProt Q16769, 29-361: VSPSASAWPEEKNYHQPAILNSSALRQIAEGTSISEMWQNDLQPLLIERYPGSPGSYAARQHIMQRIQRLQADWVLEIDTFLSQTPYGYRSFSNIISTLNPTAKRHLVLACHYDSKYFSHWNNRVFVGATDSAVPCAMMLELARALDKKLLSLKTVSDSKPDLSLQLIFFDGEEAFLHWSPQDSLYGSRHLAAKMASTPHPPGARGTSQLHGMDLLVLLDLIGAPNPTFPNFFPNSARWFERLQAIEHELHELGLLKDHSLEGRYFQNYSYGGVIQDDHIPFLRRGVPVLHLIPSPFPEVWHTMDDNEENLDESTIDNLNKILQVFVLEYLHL

Experiments:
QC = QC (Homo sapiens, UniProt Q16769); experiment: Qualitative substrate conversion by MALDI-TOF mass spectrometry, human QC; assay type: biochemical; set-up: The cDNA of the mature QC starting with codon 38 was fused in frame with the plasmid encoded 6×histidine tag; 6xHis; made in house; host or cells: Pichia pastoris X33 (pPICZαB); also E. coli M15 (pQE-31)
Experimental: Matrix-assisted laser desorption/ionization mass spectrometry was carried out using the Hewlett-Packard G2025 LD-TOF System with a linear time of flight analyzer. The instrument was equipped with a 337 nm nitrogen laser, a potential acceleration source (5 kV) and a 1.0 m flight tube. Detector operation was in the positive-ion mode and signals were recorded and filtered using LeCroy 9350M digital storage oscilloscope linked to a personal computer. Samples (5 μl) were mixed with equal volumes of the matrix solution. For matrix solution we used DHAP/DAHC, prepared by solving 30 mg 2′,6′-dihydroxyacetophenone (Aldrich) and 44 mg diammonium hydrogen citrate (Fluka) in 1 ml acetonitrile/0.1% TFA in water (1/1, v/v). […]
In order to further investigate the specificity and selectivity of the QCs, peptides were synthesized comprising either a modified N-terminal glutaminyl residue or a modified amino acid in the second position. […] Due to the cyclization of the glutaminyl residue or its analog, respectively, a mass difference of the substrate and the product of catalysis is detected. In cases of ammonia liberation of one mole per mole of substrate, the conversion was also analyzed quantitatively using the spectrophotometric assay.

[1] = system: Glutaminyl cyclase present in the homogenate of porcine pituitary; experiment: Formation of [pGlu^3]Aβ3-11a by QC in porcine pituitary homogenate, MALDI-TOF; assay type: biochemical
Experimental: Matrix-assisted laser desorption/ionization mass spectrometry was carried out using the Hewlett-Packard G2025 LD-TOF System with a linear time of flight analyzer. […] Samples (5 μl) were mixed with equal volumes of the matrix solution. For matrix solution we used DHAP/DAHC, prepared by solving 30 mg 2′,6′-dihydroxyacetophenone (Aldrich) and 44 mg diammonium hydrogen citrate (Fluka) in 1 ml acetonitrile/0.1% TFA in water (1/1, v/v). A small volume (=1 μl) of the matrix-analyte-mixture was transferred to a probe tip and immediately evaporated in a vacuum chamber (Hewlett-Packard G2024A sample prep accessory) to ensure rapid and homogeneous sample crystallization.
In case of Aβ3-21a, the assays contained 1% DMSO. At different times, samples were removed from the assay tube, peptides extracted using ZipTips (Millipore) according to the manufacturer's recommendations, mixed with matrix solution (1:1 v/v) and subsequently the mass spectra recorded.

Row | Compound | substrate conversion (cyclization) by human QC (QC) | conversion to [pGlu^3]Aβ3-11a [1]
1 | CC(C)C[C@H](NC(=O)[C@H](CCCNC(=N)N)NC(=O)[C@H](CCCCN)NC(=O)[C@H](Cc1ccccc1)NC(=O)C[C@@H](N)CCC(N)=O)C(=O)N[C@@H](C)C(N)=O [H-βhomoGln-Phe-Lys-Arg-Leu-Ala-NH2] (H-[β3hQ]FKRLA-NH2) | converted into a five-membered lactam ring | 
2 | QFRHDSGYE-NH2 [[Gln^3]Aβ3-11a] |  | catalyzes conversion
